Test results taken from publication PMC6828672.
Results are given in words; binding and its absence hold for the method and conditions named. Binding seen in cells or lysates may run through a third protein. Sequences can lack the tags named with a protein.

Molecular target: ΔBTB-KCASH2-Flag, the KCASH2 C-terminal region (human)
Experiment: co-IP; lysates of co-transfected HEK293T cells (50 mM Tris-HCl pH 7.6, 1% deoxycholate, 150 mM NaCl, 1% NP40, 5 mM EDTA, 100 mM NaF) incubated with anti-Flag M2 agarose beads 2 h at 4 °C; Western blot

- binding: no binding
B1: HA-tagged KCTD15, full length (protein, UniProt Q96SI1 1-283)
chain: MPHRKERPSGSSLHTHGSTGTAEGGNMSRLSLTRSPVSPLAAQGIPLPAQLTKSNAPVHIDVGGHMYTSSLATLTKYPDSRISRLFNGTEPIVLDSLKQHYFIDRDGEIFRYVLSFLRTSKLLLPDDFKDFSLLYEEARYYQLQPMVRELERWQQEQEQRRRSRACDCLVVRVTPDLGERIALSGEKALIEEVFPETGDVMCNSVNAGWNQDPTHVIRFPLNGYCRLNSVQVLERLFQRGFSVAASCGGGVDSSQFSEYVLCREERRPQPTPTAVRIKQEPLD
